A short description of this assay: qHTS Assay for Modulators of Lamin A Splicing. To be noted: HeLa LMNA splicing GFP/RFP minigene ratio, 48 h. An outline of the steps: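 Read-out is the ratio of GFP to DsRed2 object intensity, acquired by 488 nm laser-scanning cytometry on HeLa lamin A-EGFP minigene reporter cells. Compound incubation 48 hrs at 37 °C in Opti-MEM with 2% FBS; DMSO 0.5% final.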
For orientation: Quantitative high-throughput screening tests each substance at several concentrations.

The mark [1] stands for this setting: measured here: GFP splicing reporter channel.
The mark [2] stands for this setting: measured here: RFP viability control channel.

“And” between values parts separate entries of the source, which are not always exact repeats. Identical values can stand only once. This is one part of the list. Shown are side measurements of this screen, not its main read-out; they come without a call. Compounds called inactive in the main read-out are mostly missing here. The note in brackets gives the kind of curve behind each potency; many fits are weak.

For `CC1(C)Cc2c(sc3nnn(Cc4ccccc4)c(=O)c23)CO1`, the AC50 (commonly the concentration at which the activity in the assay is half-maximal) under setting [1] is 11.2 µM [rising, partial curve] and the AC50 under setting [2] was 15.8 µM [rising, partial curve].
Take `Nc1nc(O)c2ncn([C@H]3CC[C@@H](CO)O3)c2n1`: the AC50 under setting [2] is 0.0891 µM [falling, full curve, poor fit].
The same measure, in the same setting: the result for `COc1ccc(OCC(=O)NCc2ccc3c(c2)CCN3C(=O)c2ccccc2)cc1` reads 17.8 µM [rising, single point].
For `COc1ccccc1N1CCN(c2ncnc3c2cnn3-c2cc(Cl)ccc2C)CC1`, the AC50 under setting [1] is 35.5 µM [falling, single point] and the AC50 under setting [2] was 20 µM [falling, partial curve, poor fit].
Consider `COc1ccccc1N1CCN(C(=O)c2ccc3[nH]c4c(c3c2)CCCC4)CC1`, for which the AC50 under setting [2] was 25.1 µM [rising, single point].
Still for that read-out and setting: the result for `Cc1nnc(SCc2cnc(-c3ccc(C(C)C)cc3)s2)n1C` reads 31.6 µM [rising, single point].
With `CC(C)C(=O)NC(c1ccc([N+](=O)[O-])cc1)c1c(O)ccc2ccccc12` (stereo not given), the AC50 is, setting by setting: under setting [1], 35.5 µM [falling, single point]; under setting [2], 14.1 µM [falling, partial curve].
Regarding `CC(C)NC[C@@H](O)COc1ccc(COCCOC(C)C)cc1`, the AC50 under setting [1] is 0.447 µM [falling, single point].
On to `COc1ccc(OCc2ccc(-c3nc4ccccc4c(=O)n3N)o2)cc1`, for which the AC50 under setting [1] was 12.6 µM [rising, single point].
Take `O=C(NC[C@@H](O)CO)c1c(I)c(C(=O)NC[C@@H](O)CO)c(I)c(N(CCO)C(=O)CO)c1I`: the AC50 reads like this: under setting [1], 7.94 µM [rising, single point]; under setting [2], 0.02 µM [falling, full curve, poor fit].
For `Cc1nn2c(-c3ccncc3)ccnc2c1Br`, under setting [2], the AC50 is 0.01 µM [falling, full curve, poor fit].
Same read-out and setting: the result for `Cc1ccc(N2CCN(c3ccc(NCc4nc5ccccc5n4C)cc3)CC2)cc1` reads 15.8 µM [rising, single point].
`Cc1ccc(CSc2nc3ccc(NC(=O)COc4ccccc4)cc3s2)cc1`: the AC50 was 20 µM [falling, partial curve, poor fit] under setting [1] and 1.41 µM [falling, full curve, poor fit] under setting [2].
As for `CC(=O)c1cn(N(C)c2ncc(C(F)(F)F)cc2Cl)c(=O)[nH]c1=O`, the AC50 under setting [2] is 10 µM [falling, partial curve].
On to `FC(F)(F)c1ccc(N=Cc2sc(N3CCOCC3)nc2-c2ccccc2)cc1`, for which, under setting [2], the AC50 is 14.1 µM [rising, single point].
The same measure, in the same setting: the result for `CCOc1ccc(NC(=O)CSC2=Nc3ccccc3C3=NC(CCC(=O)NCc4ccccc4)C(=O)N23)cc1` (stereo not given) reads 35.5 µM [falling, single point].
Still for that read-out and setting: the result for `Cc1cc(N/N=C/c2c(O)ccc3ccccc23)nc(-c2ccccc2O)n1` reads 12.6 µM [rising, single point].
Regarding `CCNc1nc(NC(C)C)nc(SCCOC(=O)c2ccccc2)n1`, the AC50 reads like this: under setting [1], 12.6 µM [rising, single point]; under setting [2], 35.5 µM [rising, single point].
Take `Cc1ccc(CNC(=O)c2ccc3c(c2)nc(C)n3-c2cccc(F)c2)cc1`: the half-maximal activity concentration (AC50) under setting [1] is 35.5 µM [falling, single point] and the AC50 under setting [2] was 35.5 µM [falling, partial curve, poor fit].
`O=C(Nc1nccs1)c1ccc(-c2ccc([N+](=O)[O-])cc2)o1`: the AC50 is, setting by setting: under setting [1], 5.62 µM [rising, partial curve, poor fit]; under setting [2], 6.31 µM [rising, partial curve, poor fit].
For `COc1ccc2ccccc2c1CN1CCN(C(=O)c2ccccc2)CC1`, the AC50 under setting [1] is 12.6 µM [rising, single point] and the AC50 under setting [2] is 22.4 µM [rising, single point].
Regarding `Cc1ccc(S(=O)(=O)NC(N)=NCCc2ccc(Cl)cc2)cc1C`, the AC50 is 31.6 µM [rising, single point] under setting [1] and 22.4 µM [rising, single point] under setting [2].
Regarding `CCOc1cc(Br)ccc1S(=O)(=O)NCc1ccccc1`, the AC50 by setting is: under setting [1], 22.4 µM [rising, single point]; under setting [2], 22.4 µM [rising, single point].
For `CCCCCNC(=O)c1cccnc1SCC(=O)Nc1ccccc1OC`, the AC50 under setting [2] is 14.1 µM [rising, single point].
Take `COc1ccc2[nH]cc(CCNc3ncncc3-c3ccccc3OC)c2c1`: the AC50 under setting [1] was 7.94 µM [falling, partial curve].
Turning to `O=C(Nc1ccc(Br)cc1)c1ccc(F)c(S(=O)(=O)NCc2cccs2)c1`, the AC50 under setting [2] is 3.16 µM [rising, single point].
Regarding `CCOC(=O)N1CCN(C(=O)CN(c2cccc(C)c2)S(=O)(=O)c2ccccc2)CC1`, the AC50 was 5.62 µM [rising, single point] under setting [1] and 6.31 µM [rising, single point] under setting [2].
As to `CCN(c1ccccc1)S(=O)(=O)c1cc(C(=O)Nc2ccc(F)c(F)c2)ccc1F`, the AC50 under setting [1] is 35.5 µM [rising, single point] and the AC50 under setting [2] was 8.91 µM [rising, partial curve, poor fit].
Consider `S=C(NCCSCc1ccc(Cl)cc1)Nc1ccccc1`, for which, under setting [2], the AC50 was 11.2 µM [falling, single point].
Turning to `Cc1ccccc1C(=O)Nc1ccc(OCc2cc(=O)n3cccc(C)c3n2)cc1`, under setting [1], the AC50 is 35.5 µM [rising, partial curve, poor fit].
Take `NC(=O)c1ccccc1NC(=O)Nc1cccc(Cl)c1Cl`: the AC50 under setting [1] was 3.98 µM [rising, full curve] and the AC50 under setting [2] was 14.1 µM [rising, partial curve].
As for `CC1=CC(C)(C)N(S(=O)(=O)c2ccc(F)cc2)c2ccccc21`, under setting [2], the AC50 was 20 µM [rising, single point].
The same measure, in the same setting: the result for `Cn1ccnc1Sc1ccc(C(N)=O)cc1[N+](=O)[O-]` reads 0.562 µM [rising, full curve, poor fit].
On the same count and under the same terms, the result for `Cc1cc(C(=O)OCn2nnc3ccccc3c2=O)c(C)n1-c1ccccc1` reads 31.6 µM [rising, single point]; that for `COC(=O)c1ccccc1NC(=O)CSc1nc2ccccc2nc1Cc1ccccc1OC`, 0.708 µM [falling, full curve, poor fit].
With `CS(=O)(=O)Nc1cccc(-c2ccc3ncnc(Nc4ccccc4)c3c2)c1`, the AC50 was 12.6 µM [falling, partial curve] under setting [1] and 12.6 µM [falling, partial curve] under setting [2].
As to `COc1cc(OC)cc(C(=O)Nc2nnc(NC(=S)Nc3ccccc3)s2)c1`, the AC50 under setting [2] was 0.0355 µM [falling, full curve, poor fit].
For `COC(=O)C1=C(C)N(Cc2ccccc2)C(=O)N[C@H]1c1ccccc1`, the AC50 was 0.00447 µM [falling, full curve, poor fit] under setting [1] and 0.00631 µM [falling, full curve, poor fit] under setting [2].
For the molecule `Cc1cc2c(N=O)c(NO)ccc2[nH]1`, the AC50 was 12.6 µM [falling, single point] under setting [1] and 8.91 µM [falling, partial curve] under setting [2].
With `CC1CCN(C(=O)CCc2ccc(S(=O)(=O)NC(C)C)cc2)CC1`, the AC50 under setting [1] was 35.5 µM [rising, single point].
With `CCOc1ccc(/C(O)=C/C(=O)C(=O)Nc2ccc(S(=O)(=O)NC(C)=O)cc2)cc1`, the AC50 under setting [2] is 0.708 µM [rising, single point].
The same measure, in the same setting: the result for `CCOC(=O)C(=CNc1ccccc1N1CCOCC1)C(=O)OCC` reads 1 µM [falling, partial curve, poor fit].
Take `CC(=O)Nc1cc(OC(C)=O)c2nonc2c1OC(C)=O`: the AC50 runs as follows: under setting [1], 11.2 µM [falling, partial curve]; under setting [2], 8.91 µM [falling, partial curve].
Consider `O=C(NCCNS(=O)(=O)c1ccccc1Cl)c1cc(OCC(F)(F)F)ccc1OCC(F)(F)F`, for which, under setting [1], the AC50 is 4.47 µM [rising, partial curve].
Turning to `COc1ccc(NC(=O)CSc2nc3ccccc3n2-c2ccccc2)c([N+](=O)[O-])c1`, under setting [2], the AC50 was 12.6 µM [rising, partial curve].
For `COc1ccc(CCN2CCC(Nc3nc4ccccc4n3Cc3ccc(F)cc3)CC2)cc1`, the AC50 reads like this: under setting [1], 4.47 µM [falling, partial curve, poor fit] and 22.4 µM [falling, partial curve, poor fit]; under setting [2], 7.94 µM [falling, single point] and 35.5 µM [falling, single point] and 12.6 µM [rising, partial curve].
As for `CCCCOC(=O)C1=C(C)Nc2ncnn2C1c1cccc(OC)c1` (stereo not given), the AC50 reads like this: under setting [1], 10 µM [rising, partial curve, poor fit]; under setting [2], 12.6 µM [rising, partial curve].
Take `CCCCn1c(-c2csc3c2CCC(C)C3)n[nH]c1=S` (stereo not given): the AC50 runs as follows: under setting [1], 4.47 µM [rising, partial curve]; under setting [2], 12.6 µM [rising, partial curve].
In the case of `CCOC(=O)c1c(C)[nH]c(C)c1S(=O)(=O)N1CCC(C(=O)N2CCN(c3ccccc3F)CC2)CC1`, the AC50 under setting [1] was 25.1 µM [rising, single point] and the AC50 under setting [2] was 12.6 µM [rising, single point].
As to `CC(C)CCNC(=O)c1c[nH]c2ccc(S(=O)(=O)N3CCC4(CC3)OCCO4)cc2c1=O`, under setting [1], the AC50 was 12.6 µM [rising, single point].
On to `COc1ccc(S(=O)(=O)NCC(=O)N(CC(=O)NCC2CCCO2)c2c(C)cccc2C)cc1` (stereo not given), for which the AC50 under setting [2] is 7.08 µM [rising, partial curve, poor fit].
As for `COc1cccc(Cn2c(=O)c(-c3ccc(F)cc3)nc3cncnc32)c1`, the AC50 runs as follows: under setting [1], 20 µM [falling, partial curve]; under setting [2], 20 µM [falling, partial curve].

Values taken from PubChem BioAssay AID1487 (National Center for Advancing Translational Sciences (NCATS), 2009).
